Results are given in words; binding and its absence hold for the method and conditions named. Some results given as binding are weak or reduced against the parent protein; the word gives no strength.
B1: clonotype 304 (EPOR/CD131 binders, Table 8) (antibody, V domains shown)
VH: EVQLVESGGGLVKPGGSLRLSCAASGFTFSRYSMNWVRQAPGKGLEWVSSIISSTSYIYYADSVKGRFTISRDNAKNSLYLQMNSLRAEDTAVYYCARETPVTLFDAFDIWGQGTMVTVSS
VL: QSVLTQPPSVSGAPGQRVTISCTGSSSNIGARYDVHWYQLLPGSAPKLLIYDNSDRPSGVPDRFSGSRSGTSASLAITGLQAEDEADYFCQSYDSSLSGSVFGGGTKLTVL
B2: clonotype 305 (EPOR/CD131 binders, Table 8) (antibody, V domains shown)
VH: EVHLVESGGGLVQPGRSLRLSCAASGFTFDEYAMHWVRQVPGKGLEWVSGISWNSGSIGYADSVKGRFTISRDNAKNSLYLQMNSLRAEDTALYYCAKDIFTGRAGYFDYWGQGTLVTVSS
VL: QSVLTQPPSVSGAPGQRVTISCTGSSSNIGAGYDVHWYQQLPGTAPKLLIYGNSNRPSGVPDRFSGSKSGTSASLAITGLQAEDEADYYCQSYDSSLSGWVFGGGTKLTVL
B3: clonotype 307 (EPOR/CD131 binders, Table 8) (antibody, V domains shown)
VH: QITLKESGPTLVKPTQTLTLTCTFSGFSISTSGVGVGWIRQPPGKALEWLAFIFWNDDKRYSPSLKSRLTITKDTSKNQVVLTMTNMDPVDTATYYCTHTEYGSSWSVDYWGQGTLVTVSS
VL: QAVLTQPASLSASPGASASLTCTLRSGINVGTSRIYWYQQKPGSPPQYLLRYKSDSDKHQDSGVPSRFSGSKDASANAGILLISGLQSEDEADYYCMIWHSSAVVFGGGTKLTVL
B4: clonotype 308 (EPOR/CD131 binders, Table 8) (antibody, V domains shown)
VH: EVQLVESGGGVVRPGGSLRLSCAASGFTFDDYGMSWVRQAPGKGLEWVSGINWNGGSTGYADSVKGRFTISRDNAKNSLYLQMNSLRAEDTALYYCARHFDWLLSNAFDIWGQGTMVTVSS
VL: QAVLTQPASLSASPGASASLTCTLRSGINVGTYRIYWYQQKPGSPPQYLLRYKSDSDKQQGSGVPSRFSGSKDASANAGILLISGLQSEDEADYYCMIWHSSASVVFGGGTKLTVL
B5: clonotype 309 (EPOR/CD131 binders, Table 8) (antibody, V domains shown)
VH: QVQLVQSGAEVKKPGASVKVSCKASGYTFTSYDINWVRQATGQGLEWMGWMNPNSGNTGYAQKFQGRVTMTRNTSISTAYMELSSLRSEDTAVYYCVRRITVVRGVISLDYWGQGTLVTVSS
VL: SYELTQPPSVSVSPGQTAIITCSGAKLGDKYACWYQKKPGQSPVMVIYQDRKRPSGIPERFSGSNSGNTATLTISGTQAMDEADYYCQAWDSSTAVFGGGTKLTVL
B6: clonotype 316 (EPOR/CD131 binders, Table 8) (antibody, V domains shown)
VH: EVQLVESGGGLVQPGGSLRLSCAASGFTFSSYWMSWVRQAPGKGLEWVANIKQDGSEKYYVDSVKGRFTISRDNAKNSLYLQMNSLRAEDTAVYYCARDDTIFGVVTDAFDIWGQGTMVTVSS
VL: SSELTQDPAVSVALGQTVRITCQGDSLRSYYASWYQQKPGQAPVLVIYGKNNRPSGIPDRFSGSSSGNTASLTITGAQAEDEADYYCNSRDSSGNLFGGGTKLTVL
B7: clonotype 319 (EPOR/CD131 binders, Table 8) (antibody, V domains shown)
VH: EVQLVESGGGLVKPGGSLRLSCAASGFTFSTYSMNWVRQAPGKGLEWVSSISSSSTYIYYADSVKGRFTISRDNAKNSLYLQMNSLRADDTAVYYCARDPPLSGSYAGEFDYWGQGTLVTVSS
VL: SSELTQDPAVSVALGQTVRITCQGDSLRSYYASWYQQKPGQAPVLVIYGKNNRPSGIPDRFSGSSSGNTASLTITGAQAEDEADYYCNSRDSSGNHWVFGGGTKLTVL
B8: clonotype 326 (EPOR/CD131 binders, Table 8) (antibody, V domains shown)
VH: EVQLVESGGGLVQPGGSLRLSCAASGFTFSSYSMNWVRQAPGKGLEWVSYISSSSSTIYYADSVKGRFTISRDNAKNSLYLQMNSLRDEDTAVYYCARTYYYGSGSYYTLDYWGQGTLVTVSS
VL: QSVLTQPPSVSGAPGQRVTISCTGSSSNIGAGYDVHWYQQLPGTAPKLLIYGNSNRPSGVPDRFSGSKSGTSASLAITGLQAEDEADYYCQSYDSSLSGVVFGGGTKLTVL
B9: clonotype 327 (EPOR/CD131 binders, Table 8) (antibody, V domains shown)
VH: QVQLVQSGAEVKKPGASVKVSCKASGYTFTSYDINWVRQATGQGLEWMGWMNPNSGNTGYAQKFQGRVTMTRNTSISTAYMELSSLRSEDTAVYYCARGGITIFGVVTPFDYWGQGTLVTVSS
VL: QAVLTQPASLSASPGASASLTCTLRSGINVGTYRIYWYQQKPGSPPQYLLRYKSDSDKQQGSGVPSRFSGSKDASANAGILLISGLQSEDEADYYCMIWHSSAWVFGGGTKLTVL
B10: clonotype 333 (EPOR/CD131 binders, Table 8) (antibody, V domains shown)
VH: EVQLVESGGGLVQPGGSLRLSCAASGFTFSSYWMSWVRQAPGKGLEWVANIKQDGSEKYYVDSVKGRFTISRDNAKNSLYLQMNSLRAEDTAVYYCAREGVLWFGEFYYYMDVWGKGTTVTVSS
VL: SSELTQDPAVSVALGQTVRITCQGDSLRRYYASWYQQKPGQAPVLVIYGKNNRPSGIPDRFSGSSSGNTASLTITGAQAEDEADYYCNSRDSSGNHLVFGGGTKLTVL
B11: clonotype 341 (EPOR/CD131 binders, Table 8) (antibody, V domains shown)
VH: QVHLVESGGGVVQPGRSLRLSCAASGFTFSSYGMHWVRQAPGKGLEWVAIIWYDGSNEYYADSVKGRFTISRDNSKNTLYLQMNTLRAEDTAVYYCAGAYYYDSSGYLNYMDVWGKGTTVTVSS
VL: SYVLIQPPSVSVAPGKTARITCGGNNIGGKSVHWYQLKPGQAPVLVICYNRDRPSGIPERFSGSNSGNTATLTISRVEAGDEADYYCQVWDSSSDHPVFGGGTKLTVL
B12: clonotype 342 (EPOR/CD131 binders, Table 8) (antibody, V domains shown)
VH: EVQLVESGGGLVKPGGSLRLSCAASGFTFRNAWMSWVRQAPGKGLEWVGRIKTKTDGGATQYAAPVKGRFTISRDDSKNTLYLQMNSLKTEDTAVYYCTTDHIEYSSLYYFDYWGQGTLVTVSS
VL: QSVLTQSPSASGTPGQRVTISCSGSNSNIGFNTVNWYQQLPGTAPKLLIDSNNQRPSGVPDRFSGSTSGTSASLAISGLQSEDEADYYCSSYAGSNNFVFGTGTKVTVL
B13: clonotype 343 (EPOR/CD131 binders, Table 8) (antibody, V domains shown)
VH: QVQLVQSGAEVKKPGASVKVSCKASGYTFTSYGISWVRQAPGQGLEWMGWISAYNGNTNYAQKLQGRVTMTTDTSTSTAYMELRSLRSDDTAVYYCARQLAYCGGDCYLYFDYWGQGTLVTVSS
VL: QSALTQPPSASGSPGQSVTISCTGTSSDVGGYNYVSWYQQHPGKAPKLMIYEVSKRPSGVPDRFSGSKSGNTASLTVSGLQAEDEADYYCSSYAGSNNLVFGGGTKLTVL
B14: clonotype 345 (EPOR/CD131 binders, Table 8) (antibody, V domains shown)
VH: QVQLQQSGPGLVKPSQTLSLTCAISGDSVSSNSAAWNWIRQSPSRGLEWLGRTYYRSKWYNDYAVSVKSRITINPDTSKNQFSLQLNSVTPEDTAVYYCAREAYWNYGGFDYWGQGTLVTVSS
VL: QSALTQPPSASGSPGQSVTISCTGTSSDVGGYNYVSWYQQHPGKAPKLMIYEVSKRPSGVPDRFSGSKSGNTASLTVSGLQAEDEADYYCSSYAGSNNFGVFGGGTKLTVL
B15: clonotype 349 (EPOR/CD131 binders, Table 8) (antibody, V domains shown)
VH: EVQLVESGGGLVKPGGSLKLSCAASGFTFSSYSMNWVRQAPGKGLEWVSSISSSSSYIYYADSVKGRFTISRDNAKNSLYLQMNSLRAEDTAVYYCARDGRITMVRGVRNWFDPWGQGTLVTVSS
VL: SYELTQPPSVSVSPGQTANITCSGDKLGNKYACWYQQKPGQSPVLVIFQDNKRPSGIPERFSGSNSGNTATLTIGGTQAMDEADYYCQAWDSSTVVFGGGTKVTVL
B16: clonotype 356 (EPOR/CD131 binders, Table 8) (antibody, V domains shown)
VH: EVQLVESGGGLVQPGGSLRLSCAASGFTFSSYWMSWVRQAPGKGLEWVANIKQDGSEKYYVDSVKGRFTISRDNAKNSLYLQMNSLRAEDTAVYYCARTPGYSSSWYEGPYFDYWGQGTLVTVSS
VL: SYELTQPPSVSVSPGQTARITCSGDALPKKYAYWYQQKSGQAPVLVIYEDSKRPSGIPERFSGSSSGTMATLTISGAQVEDEADYYCYSTDSSGNHVVFGGGTKLTVL
B17: clonotype 360 (EPOR/CD131 binders, Table 8) (antibody, V domains shown)
VH: QVQLQQWGAGLLKPSETLSLTCAVYGGSFSGHYWNWIRQPPGKGLEWIGEINHSGFTNYNPSLKSRVTISVDTPKNQFPLNLSSVTAADTAVYYCAREGLTGHVFDIWGQGTMVTVSS
VL: QTVVTQEPSLTVSPGGTVTLTCASSTGAVTSGYYPNWFQQKPGQAPRALIYSTSNKHSWTPARFSGSLLGGKAALTLSGVQPEDEAEYYCLLYYGGAQVFGGGTKLTVL
B18: clonotype 361 (EPOR/CD131 binders, Table 8) (antibody, V domains shown)
VH: QVQLQQWGAGLLKPSETLSLTCAVYGGFLRGYYWSWIRQPPGKGLEWIGEINHSGSTNYNPSLKSRVTISVDTAENQFSLKLNSVTAADTAVYYCAREGLTGHTFDIWGQGTMVTVSS
VL: QSALTQPASVSGSPGQSITISCTGTSSDVGGYNYVSWYQQHPGKAPKLMIYDVSKRPSGVSNRFSGSKSGNTASLTISGLQAEDEADYYCCSYAGSSTVVFGGGTKLTVL
B19: clonotype 363 (EPOR/CD131 binders, Table 8) (antibody, V domains shown)
VH: QVQLVQSGAEVKKPGASVKVSCKASGYIFSNYGICWVRQAPGQGLEWMGWINPYNVNRNYAQSLQGRVTMTTDTSTNSAYMELRSLKSDDTAVYFCARGVWGSYRSHSYYTFMDVWGKGTTVTVSS
VL: SYELTQPSSVSVSPGQAARITCSGNLLAKKYPRWFLQKPGQAPIMLTHTDCERPSGIPERFSGSSSGTTVTLTISGAQVEDEADYYCFSAADNTSVFDGGTNLTVL
B20: clonotype 364 (EPOR/CD131 binders, Table 8) (antibody, V domains shown)
VH: EVQLVESGGGLVKPGGSLRLSCAASGFTFSSYSMNWVRQAPGKGLEWVSSISSSSSYIYYADSVKGRFTISRDNAKNSLYLQMNSLRAEDTAVYYCARDYRPYYDILTGYSHFDYWGQGTLVTVSS
VL: SSELTQDPAVSVALGQTVRITCQGDSLRSYYASWYQQKPGQAPVLVIYGKNNRPSGIPDRFSGSSSGNTASLTITGAQAEDEADYYCNSRDSSGNHVVFGGGTKLTVL
B21: clonotype 365 (EPOR/CD131 binders, Table 8) (antibody, V domains shown)
VH: QVQLVQSGAEVKKPGASVKVSCKASGFTFTSYYIHWVRQAPGQGLEWMGIITPSGGTTSYAQKFQGRVTMTRDTSTSTVYMELSSLRSEDTAVYYCARRVLWFGELRDYFYYMDVWGKGTTVTISS
VL: SYELTQPPSVSVSPGQTARITCSGDALPKKYAYWFQQKSGQAPVLVIYEDSKRPSGIPERFSGSSSGTMATLIISGAQVEDEADYYCYSTDSSGNHVVFGGGTKLTVL

The chains behind the UniProt entries cited, without tags or fusion partners. Residues count along the entry.
UniProt P32927, residues 17-443: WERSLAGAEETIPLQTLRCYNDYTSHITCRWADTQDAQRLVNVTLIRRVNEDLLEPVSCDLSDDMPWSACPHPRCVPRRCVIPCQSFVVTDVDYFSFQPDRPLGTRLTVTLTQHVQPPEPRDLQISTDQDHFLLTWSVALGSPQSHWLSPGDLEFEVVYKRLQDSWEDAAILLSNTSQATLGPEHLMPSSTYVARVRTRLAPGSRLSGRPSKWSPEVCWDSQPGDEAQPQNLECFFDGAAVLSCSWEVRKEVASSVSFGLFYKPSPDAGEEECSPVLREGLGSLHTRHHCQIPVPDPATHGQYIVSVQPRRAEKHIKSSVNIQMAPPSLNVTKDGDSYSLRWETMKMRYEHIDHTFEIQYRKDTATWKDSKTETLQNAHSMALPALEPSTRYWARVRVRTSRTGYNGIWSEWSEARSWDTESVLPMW

What follows are binders tested against hCD131-Fc (IME021, in house) (human) (UniProt P32927) (assay: B-cell sorting with labelled hEPOR-Fc and hCD131-Fc, double-positive population).

Binder | binding
B1 | binds
B2 | binds
B3 | binds
B4 | binds
B5 | binds
B6 | binds
B7 | binds
B8 | binds
B9 | binds
B10 | binds
B11 | binds
B12 | binds
B13 | binds
B14 | binds
B15 | binds
B16 | binds
B17 | binds
B18 | binds
B19 | binds
B20 | binds
B21 | binds

From US20250388687A1
